# In the supplement of paper PMC7666118:
# Sequences of proteins named here, by UniProt entry; tags and fusion partners are left off. A change or cut given only in a name is not applied to a line headed by its entry.
# UniProt Q86Y37: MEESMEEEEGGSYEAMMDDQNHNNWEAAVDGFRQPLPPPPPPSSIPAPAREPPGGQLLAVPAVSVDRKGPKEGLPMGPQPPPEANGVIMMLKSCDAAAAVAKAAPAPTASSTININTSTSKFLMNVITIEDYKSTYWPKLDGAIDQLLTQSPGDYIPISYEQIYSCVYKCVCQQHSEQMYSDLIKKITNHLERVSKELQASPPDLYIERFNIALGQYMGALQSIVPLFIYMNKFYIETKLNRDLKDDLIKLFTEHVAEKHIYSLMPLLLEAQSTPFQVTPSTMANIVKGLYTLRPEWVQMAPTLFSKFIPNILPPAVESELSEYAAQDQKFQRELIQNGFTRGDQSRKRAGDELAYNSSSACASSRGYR
# UniProt Q9NT62, whole entry: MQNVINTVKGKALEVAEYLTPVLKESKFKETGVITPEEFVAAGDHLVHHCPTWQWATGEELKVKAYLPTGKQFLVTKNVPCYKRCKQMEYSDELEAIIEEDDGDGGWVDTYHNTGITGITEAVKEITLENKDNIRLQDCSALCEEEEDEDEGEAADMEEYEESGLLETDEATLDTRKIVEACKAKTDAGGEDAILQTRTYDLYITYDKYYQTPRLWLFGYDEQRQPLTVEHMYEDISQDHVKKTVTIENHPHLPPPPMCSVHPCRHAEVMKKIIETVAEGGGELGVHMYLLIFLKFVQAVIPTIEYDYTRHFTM
# UniProt Q67FW5: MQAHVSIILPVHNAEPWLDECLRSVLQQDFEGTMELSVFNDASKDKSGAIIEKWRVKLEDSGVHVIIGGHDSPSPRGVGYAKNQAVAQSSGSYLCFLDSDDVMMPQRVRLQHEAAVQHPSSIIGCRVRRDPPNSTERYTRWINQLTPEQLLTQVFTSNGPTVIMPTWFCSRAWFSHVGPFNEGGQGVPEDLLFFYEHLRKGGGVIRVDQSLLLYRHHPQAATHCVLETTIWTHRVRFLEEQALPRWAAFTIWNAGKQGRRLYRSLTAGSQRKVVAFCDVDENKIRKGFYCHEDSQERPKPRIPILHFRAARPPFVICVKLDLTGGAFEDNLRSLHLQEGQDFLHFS
# UniProt Q9UII2: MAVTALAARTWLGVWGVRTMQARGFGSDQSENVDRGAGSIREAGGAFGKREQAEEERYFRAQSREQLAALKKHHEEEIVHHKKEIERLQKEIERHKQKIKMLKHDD
# UniProt P54252: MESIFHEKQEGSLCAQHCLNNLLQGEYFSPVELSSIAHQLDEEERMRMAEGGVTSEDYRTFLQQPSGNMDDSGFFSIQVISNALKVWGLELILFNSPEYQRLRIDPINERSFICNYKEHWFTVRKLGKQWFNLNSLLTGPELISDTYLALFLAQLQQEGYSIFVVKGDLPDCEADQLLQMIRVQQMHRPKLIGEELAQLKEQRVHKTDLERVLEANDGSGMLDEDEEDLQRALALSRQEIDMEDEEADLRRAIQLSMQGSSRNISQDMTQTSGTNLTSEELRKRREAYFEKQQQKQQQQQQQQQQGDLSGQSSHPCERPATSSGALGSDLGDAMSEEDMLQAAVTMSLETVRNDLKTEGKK
# UniProt P35226: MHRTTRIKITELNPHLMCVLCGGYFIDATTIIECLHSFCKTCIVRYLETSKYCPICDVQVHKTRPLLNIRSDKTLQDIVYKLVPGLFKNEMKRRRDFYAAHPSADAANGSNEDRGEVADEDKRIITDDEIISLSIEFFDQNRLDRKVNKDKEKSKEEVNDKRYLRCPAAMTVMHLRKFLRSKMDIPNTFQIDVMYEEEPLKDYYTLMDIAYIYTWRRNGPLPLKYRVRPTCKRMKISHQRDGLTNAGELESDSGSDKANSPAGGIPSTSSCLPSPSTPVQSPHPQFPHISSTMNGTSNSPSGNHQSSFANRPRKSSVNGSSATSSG
# UniProt P47756, whole entry: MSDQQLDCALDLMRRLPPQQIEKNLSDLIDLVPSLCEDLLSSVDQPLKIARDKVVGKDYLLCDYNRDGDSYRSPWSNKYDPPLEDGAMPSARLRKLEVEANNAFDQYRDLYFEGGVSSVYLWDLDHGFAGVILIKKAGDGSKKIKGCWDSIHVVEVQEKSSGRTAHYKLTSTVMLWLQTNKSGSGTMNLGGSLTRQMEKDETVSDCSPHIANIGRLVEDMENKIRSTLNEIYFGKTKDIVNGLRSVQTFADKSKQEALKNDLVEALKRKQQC
# UniProt Q9NYF8, whole entry: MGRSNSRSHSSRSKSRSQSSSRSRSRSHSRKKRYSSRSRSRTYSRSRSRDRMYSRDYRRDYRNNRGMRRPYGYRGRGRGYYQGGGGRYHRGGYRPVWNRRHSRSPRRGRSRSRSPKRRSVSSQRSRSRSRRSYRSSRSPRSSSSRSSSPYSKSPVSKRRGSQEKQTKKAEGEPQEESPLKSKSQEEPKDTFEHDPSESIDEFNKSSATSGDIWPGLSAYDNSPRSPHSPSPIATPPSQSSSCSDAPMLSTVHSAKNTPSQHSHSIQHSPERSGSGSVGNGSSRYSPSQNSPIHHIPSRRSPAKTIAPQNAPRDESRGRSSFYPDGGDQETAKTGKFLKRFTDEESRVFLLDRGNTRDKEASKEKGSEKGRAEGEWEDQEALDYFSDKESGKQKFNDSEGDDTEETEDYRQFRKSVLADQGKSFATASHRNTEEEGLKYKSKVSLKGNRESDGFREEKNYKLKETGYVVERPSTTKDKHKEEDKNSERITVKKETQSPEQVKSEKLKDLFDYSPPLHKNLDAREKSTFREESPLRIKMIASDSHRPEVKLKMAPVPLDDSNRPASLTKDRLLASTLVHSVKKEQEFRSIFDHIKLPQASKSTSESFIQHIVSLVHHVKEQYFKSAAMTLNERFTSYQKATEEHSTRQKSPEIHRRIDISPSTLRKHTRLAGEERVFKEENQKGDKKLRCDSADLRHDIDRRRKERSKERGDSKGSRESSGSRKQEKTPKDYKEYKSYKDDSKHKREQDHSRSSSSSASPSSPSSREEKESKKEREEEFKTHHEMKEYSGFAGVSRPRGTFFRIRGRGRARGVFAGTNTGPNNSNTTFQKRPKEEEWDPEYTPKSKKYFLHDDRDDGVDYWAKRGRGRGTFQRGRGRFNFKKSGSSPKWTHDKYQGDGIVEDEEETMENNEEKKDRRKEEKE
# UniProt Q9Y294, whole entry: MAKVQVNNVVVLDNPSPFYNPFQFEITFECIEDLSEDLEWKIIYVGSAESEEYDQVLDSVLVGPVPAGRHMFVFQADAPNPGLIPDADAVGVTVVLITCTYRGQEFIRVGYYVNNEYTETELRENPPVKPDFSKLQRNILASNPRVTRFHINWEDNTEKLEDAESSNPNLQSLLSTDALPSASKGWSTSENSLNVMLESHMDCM
# UniProt O95260: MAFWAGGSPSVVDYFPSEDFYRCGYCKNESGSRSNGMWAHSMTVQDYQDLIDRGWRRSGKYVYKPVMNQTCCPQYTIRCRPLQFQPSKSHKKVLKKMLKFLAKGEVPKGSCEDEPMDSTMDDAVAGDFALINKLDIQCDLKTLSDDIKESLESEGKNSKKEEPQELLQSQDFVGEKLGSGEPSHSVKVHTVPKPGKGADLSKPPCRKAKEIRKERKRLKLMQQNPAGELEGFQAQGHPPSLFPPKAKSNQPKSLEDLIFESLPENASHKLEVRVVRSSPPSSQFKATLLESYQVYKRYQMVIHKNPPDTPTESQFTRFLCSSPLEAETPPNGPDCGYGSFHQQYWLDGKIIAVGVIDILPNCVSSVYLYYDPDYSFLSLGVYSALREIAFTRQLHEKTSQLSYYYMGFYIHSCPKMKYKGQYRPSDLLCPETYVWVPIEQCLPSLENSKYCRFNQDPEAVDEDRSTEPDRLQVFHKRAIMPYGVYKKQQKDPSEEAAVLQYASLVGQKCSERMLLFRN
# UniProt P38606, whole entry: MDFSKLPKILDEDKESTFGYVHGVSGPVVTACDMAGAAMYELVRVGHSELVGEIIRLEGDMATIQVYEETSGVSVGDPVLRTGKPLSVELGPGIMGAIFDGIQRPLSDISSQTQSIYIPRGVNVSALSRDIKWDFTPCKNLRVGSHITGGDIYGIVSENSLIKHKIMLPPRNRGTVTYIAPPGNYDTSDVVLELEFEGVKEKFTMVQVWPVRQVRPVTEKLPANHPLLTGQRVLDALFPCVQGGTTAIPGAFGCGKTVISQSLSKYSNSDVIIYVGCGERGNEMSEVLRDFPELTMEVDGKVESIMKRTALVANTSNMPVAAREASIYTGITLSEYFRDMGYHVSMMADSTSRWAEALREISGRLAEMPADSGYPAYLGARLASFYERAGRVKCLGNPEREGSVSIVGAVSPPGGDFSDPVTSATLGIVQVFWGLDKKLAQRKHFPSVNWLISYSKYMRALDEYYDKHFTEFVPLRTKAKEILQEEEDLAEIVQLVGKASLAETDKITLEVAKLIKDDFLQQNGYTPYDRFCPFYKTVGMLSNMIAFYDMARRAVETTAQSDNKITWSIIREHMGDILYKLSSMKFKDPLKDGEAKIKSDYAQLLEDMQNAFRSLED
# UniProt Q68CP9, whole entry: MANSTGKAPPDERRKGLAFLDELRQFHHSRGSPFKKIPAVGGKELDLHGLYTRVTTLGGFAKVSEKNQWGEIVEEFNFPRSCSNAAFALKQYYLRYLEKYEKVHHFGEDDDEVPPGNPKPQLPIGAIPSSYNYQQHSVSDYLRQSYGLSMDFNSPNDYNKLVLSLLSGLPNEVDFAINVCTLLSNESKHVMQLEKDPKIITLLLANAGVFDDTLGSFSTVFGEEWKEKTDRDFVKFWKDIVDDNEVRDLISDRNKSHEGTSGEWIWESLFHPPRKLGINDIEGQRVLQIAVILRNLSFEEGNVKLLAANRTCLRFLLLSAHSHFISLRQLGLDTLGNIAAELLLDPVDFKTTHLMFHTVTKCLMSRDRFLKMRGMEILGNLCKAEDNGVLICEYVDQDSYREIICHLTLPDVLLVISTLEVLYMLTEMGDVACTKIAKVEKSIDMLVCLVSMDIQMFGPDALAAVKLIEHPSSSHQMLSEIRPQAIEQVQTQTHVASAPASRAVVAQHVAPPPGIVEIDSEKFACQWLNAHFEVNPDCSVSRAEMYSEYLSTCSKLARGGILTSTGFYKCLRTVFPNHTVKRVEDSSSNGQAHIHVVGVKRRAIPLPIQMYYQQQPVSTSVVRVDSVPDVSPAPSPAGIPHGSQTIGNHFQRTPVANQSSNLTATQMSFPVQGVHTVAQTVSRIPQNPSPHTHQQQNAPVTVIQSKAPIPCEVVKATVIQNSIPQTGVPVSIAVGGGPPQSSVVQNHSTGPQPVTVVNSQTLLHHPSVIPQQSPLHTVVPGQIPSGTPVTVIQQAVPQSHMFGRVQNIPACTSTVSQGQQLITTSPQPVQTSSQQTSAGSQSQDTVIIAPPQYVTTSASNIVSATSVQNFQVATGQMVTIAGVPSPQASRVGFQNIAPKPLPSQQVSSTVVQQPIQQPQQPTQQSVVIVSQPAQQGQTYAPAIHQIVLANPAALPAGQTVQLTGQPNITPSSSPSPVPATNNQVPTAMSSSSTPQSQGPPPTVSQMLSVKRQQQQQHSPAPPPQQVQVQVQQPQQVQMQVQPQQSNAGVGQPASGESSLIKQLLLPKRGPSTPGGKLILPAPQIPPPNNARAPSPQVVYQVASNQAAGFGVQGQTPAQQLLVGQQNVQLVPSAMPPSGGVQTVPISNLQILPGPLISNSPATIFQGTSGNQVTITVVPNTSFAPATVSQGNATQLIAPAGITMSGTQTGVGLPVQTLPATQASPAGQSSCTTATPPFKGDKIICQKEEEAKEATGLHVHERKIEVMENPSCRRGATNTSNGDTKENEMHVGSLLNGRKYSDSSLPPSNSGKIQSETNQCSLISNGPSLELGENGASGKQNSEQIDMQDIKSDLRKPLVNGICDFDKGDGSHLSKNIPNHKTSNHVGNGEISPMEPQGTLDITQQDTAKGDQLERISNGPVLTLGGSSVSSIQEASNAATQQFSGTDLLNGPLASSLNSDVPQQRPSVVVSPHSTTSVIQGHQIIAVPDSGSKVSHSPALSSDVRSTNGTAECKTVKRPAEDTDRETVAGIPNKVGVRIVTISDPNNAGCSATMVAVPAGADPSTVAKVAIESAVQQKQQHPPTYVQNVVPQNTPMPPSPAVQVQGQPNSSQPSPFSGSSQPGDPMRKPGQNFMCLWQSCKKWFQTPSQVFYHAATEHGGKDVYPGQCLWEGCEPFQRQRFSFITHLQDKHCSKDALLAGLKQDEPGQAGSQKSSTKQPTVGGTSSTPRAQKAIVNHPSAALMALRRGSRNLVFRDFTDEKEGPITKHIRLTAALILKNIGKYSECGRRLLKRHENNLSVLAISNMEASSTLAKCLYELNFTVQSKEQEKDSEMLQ
# UniProt Q8N0T1: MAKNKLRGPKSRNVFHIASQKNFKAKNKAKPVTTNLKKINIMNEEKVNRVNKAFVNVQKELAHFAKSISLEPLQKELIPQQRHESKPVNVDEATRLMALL
# UniProt O75934: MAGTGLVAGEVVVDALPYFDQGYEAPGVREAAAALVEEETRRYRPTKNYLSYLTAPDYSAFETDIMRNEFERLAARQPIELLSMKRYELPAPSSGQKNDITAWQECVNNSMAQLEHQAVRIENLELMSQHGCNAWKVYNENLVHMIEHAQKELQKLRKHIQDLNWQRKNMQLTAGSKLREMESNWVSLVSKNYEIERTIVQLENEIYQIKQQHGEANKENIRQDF
# The other results are listed elsewhere or left out.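 Rule for the calls: active = dose-dependent thermal stabilisation significant by F-test of dose-response against flat model at 10% FDR; inactive = not significant.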
# Compound: Nc1nc2c(ncn2[C@@H]2O[C@H](COP(=O)(O)OP(=O)(O)OP(=O)(O)O)[C@@H](O)[C@H]2O)c(=O)[nH]1
# Assay: dose-dependent thermal stabilisation call (2D-TPP, DLPTP, 10% FDR) (binary (1 = stabilised)); higher = stabilised by the compound
# Conditions: system: Jurkat gel-filtered lysate; concentration range 1-500 µM
row,Target,dose-dependent thermal stabilisation call
1,ATIC (UniProt P31939),inactive: 0
2,CACUL1 (UniProt Q86Y37),inactive: 0
3,ATG3 (UniProt Q9NT62),active: 1
4,ARMC8 (UniProt Q8IUR7),inactive: 0
5,CAMKK2 (UniProt Q96RR4),inactive: 0
6,CADM4 (UniProt Q8NFZ8),inactive: 0
7,C1orf131 (UniProt Q8NDD1),inactive: 0
8,ARHGAP32 (UniProt A7KAX9),active: 1
9,B3GNTL1 (UniProt Q67FW5),inactive: 0
10,CARD8 (UniProt Q9Y2G2),inactive: 0
11,ASAP2 (UniProt O43150),inactive: 0
12,ASNS (UniProt P08243),active: 1
13,BMP2K (UniProt Q9NSY1),inactive: 0
14,ATP6V1D (UniProt Q9Y5K8),inactive: 0
15,C5orf24 (UniProt Q7Z6I8),inactive: 0
16,BTBD11 (UniProt A6QL63),inactive: 0
17,C21orf59 (UniProt P57076),inactive: 0
18,ATPIF1 (UniProt Q9UII2),inactive: 0

# Reprinted at random: 2 records from the list.
row,Target,dose-dependent thermal stabilisation call
11,ASAP2 (UniProt O43150),inactive: 0
6,CADM4 (UniProt Q8NFZ8),inactive: 0

# (list continues)

row,Target,dose-dependent thermal stabilisation call
1,ATXN3 (UniProt P54252),inactive: 0
2,C15orf40 (UniProt Q8WUR7),inactive: 0
3,BMI1 (UniProt P35226),inactive: 0
4,CAPZB (UniProt P47756),inactive: 0
5,BCKDHA (UniProt P12694),active: 1
6,BCLAF1 (UniProt Q9NYF8),active: 1
7,CARM1 (UniProt Q86X55),inactive: 0
8,ASF1A (UniProt Q9Y294),inactive: 0
9,BRCC3 (UniProt P46736),inactive: 0
10,BCL9 (UniProt O00512),inactive: 0
11,ATE1 (UniProt O95260),inactive: 0
12,ARL3 (UniProt P36405),active: 1
13,ATP6V1A (UniProt P38606),inactive: 0
14,CAMK2G (UniProt Q13555),inactive: 0
15,ARID2 (UniProt Q68CP9),inactive: 0
16,C8orf59 (UniProt Q8N0T1),inactive: 0
17,BCAS2 (UniProt O75934),inactive: 0
18,C9orf72 (UniProt Q96LT7),inactive: 0
